Measured values from patent publication US9315534B2, “Radiologic agents for monitoring alzheimer's disease progression and Evaluating a Response to Therapy and processes for the preparation of such agents” (BOARD OF REGENTS OF THE UNIVERSITY OF NEBRASKA, priority 2007, dated 2016).
Some of these results come from one statement about several compounds together.

Test: Partition coefficient, shake-tube method, 1-octanol and water
Format: physicochemical
Conditions: octanol-water method not possible, excessively hydrophobic
Excerpt: In order to reach intracerebral targets, drugs developed for diagnosis of the AD must be able to cross two barriers separating the central nervous system (CNS) from the periphery (Hansch et al. (1987) J. Pharm. Sci., 76:663-87.), the blood-brain barrier and the blood-cerebrospinal fluid barrier. Therefore the preliminary evaluation of the new drugs included partition coefficients. CNS agents that are highly lipid soluble with the log octanol-water partition coefficient between 1 and 3 have the equilibration half-times that are proportional to brain solubility (Atkinson et al. (2002) Curr. Med. Chem., 2:229-40; Dutta et al. (1998) Br. J. Anaesth., 81:422-4; Buchwald et al. (1998) Curr. Med. Chem., 5:353-80). Only pure SP and RP diastereomers were used. Ten μCi of each ^125I-labeled compound was added to 3 mL of water, the mixture was vortexed and 1-mL aliquots were transferred into fresh tubes. To each tube 1 mL of 1-octanol was added and the mixtures were vigorously vortexed until a homogenous suspension formed. At this point, the organic and water layers were separated by centrifugation at 19° C. Aliquots of each phase were gently removed and counted in a gamma counter in a triplicate. Typically, each KP was calculated as an average of n≧18.

In the case of `CC(C)(C)c1cc(C(C)(C)C)c2c(c1F)COP(=O)(OCC1OC(n3cc([125I])c(=O)[nH]c3=O)CC1O)O2` (stereo not shown) [Compound 2a], the “estimated log P” value is reported as > 2.
